Results are given in words; binding and its absence hold for the method and conditions named. In cells and extracts the contact can be indirect. Some binding calls cover weakened binding; strength is not graded here. Sequences can lack the tags named with a protein.
Target: T1, MBP-SulA (pBCA006, the putative B. cenocepacia SulA) (Burkholderia cenocepacia J2315) (UniProt B4EQP0)
T1 sequence: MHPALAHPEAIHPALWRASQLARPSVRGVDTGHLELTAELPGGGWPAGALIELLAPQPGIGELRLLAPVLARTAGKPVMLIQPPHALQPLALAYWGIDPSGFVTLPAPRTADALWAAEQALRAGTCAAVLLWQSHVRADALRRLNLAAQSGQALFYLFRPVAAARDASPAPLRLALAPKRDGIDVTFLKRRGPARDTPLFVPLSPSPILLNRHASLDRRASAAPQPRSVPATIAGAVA
Experiment: pull-down; cell extract of E. coli TOP10 with 5 mM ATP loaded on MBPTrap HP, eluted with 10 mM maltose in buffer C (50 mM Tris-HCl pH 7, 5 mM MgCl2, glycerol 5%)

Sequences of proteins named here, by UniProt entry; tags and fusion partners are left off.
UniProt P0A6F5: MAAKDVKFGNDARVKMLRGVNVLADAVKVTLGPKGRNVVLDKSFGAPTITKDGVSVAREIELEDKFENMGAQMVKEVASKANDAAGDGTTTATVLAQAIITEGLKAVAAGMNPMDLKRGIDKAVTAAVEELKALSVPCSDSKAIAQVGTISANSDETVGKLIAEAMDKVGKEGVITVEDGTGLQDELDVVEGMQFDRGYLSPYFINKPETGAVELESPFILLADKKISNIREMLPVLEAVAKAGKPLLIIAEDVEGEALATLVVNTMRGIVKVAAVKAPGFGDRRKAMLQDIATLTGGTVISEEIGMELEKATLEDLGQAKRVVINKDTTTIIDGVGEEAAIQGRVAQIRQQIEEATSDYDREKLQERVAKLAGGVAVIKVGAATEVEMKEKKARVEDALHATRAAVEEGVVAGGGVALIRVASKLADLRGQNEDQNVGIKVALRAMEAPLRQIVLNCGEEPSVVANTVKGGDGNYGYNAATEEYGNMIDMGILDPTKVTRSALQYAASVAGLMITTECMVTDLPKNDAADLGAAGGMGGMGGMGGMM

For “E. coli chaperone GroEL (from UniProt P0A6F5 1-548)”, which binding is on record?
The binding was “binds”.

Reference: paper PMC7761207, “Molecular Characterization of the Burkholderia cenocepacia dcw Operon and FtsZ Interactors as New Targets for Novel Antimicrobial Design” (Antibiotics, 2020)
